Experimental data published in PubChem BioAssay AID588590 (National Center for Advancing Translational Sciences (NCATS), 2011).
Where “and” joins values, the source holds several entries; their conditions need not be identical. Equal entries are not always repeated. Screen size: about 390,000 compounds; about 4,000 (1%) were called active. This list was built around the results that the source calls inconclusive (neither active nor inactive); the mix of calls is not that of the screen. Calls follow the shape of the dose curve; as a rule, active = well fitted inhibition curve with a large enough effect; inconclusive = small, poorly fitted or top-dose-only effect, or another doubt; inactive = no such curve, though single readings can be large or run the other way. Where the call is inconclusive, the potency comes from a doubtful curve fit.

By UniProt entry, the sequences of proteins in these tests, tags left out. Where a name states a change or a piece, a line headed by the entry shows the natural chain unless it says otherwise.
UniProt Q9UNA4: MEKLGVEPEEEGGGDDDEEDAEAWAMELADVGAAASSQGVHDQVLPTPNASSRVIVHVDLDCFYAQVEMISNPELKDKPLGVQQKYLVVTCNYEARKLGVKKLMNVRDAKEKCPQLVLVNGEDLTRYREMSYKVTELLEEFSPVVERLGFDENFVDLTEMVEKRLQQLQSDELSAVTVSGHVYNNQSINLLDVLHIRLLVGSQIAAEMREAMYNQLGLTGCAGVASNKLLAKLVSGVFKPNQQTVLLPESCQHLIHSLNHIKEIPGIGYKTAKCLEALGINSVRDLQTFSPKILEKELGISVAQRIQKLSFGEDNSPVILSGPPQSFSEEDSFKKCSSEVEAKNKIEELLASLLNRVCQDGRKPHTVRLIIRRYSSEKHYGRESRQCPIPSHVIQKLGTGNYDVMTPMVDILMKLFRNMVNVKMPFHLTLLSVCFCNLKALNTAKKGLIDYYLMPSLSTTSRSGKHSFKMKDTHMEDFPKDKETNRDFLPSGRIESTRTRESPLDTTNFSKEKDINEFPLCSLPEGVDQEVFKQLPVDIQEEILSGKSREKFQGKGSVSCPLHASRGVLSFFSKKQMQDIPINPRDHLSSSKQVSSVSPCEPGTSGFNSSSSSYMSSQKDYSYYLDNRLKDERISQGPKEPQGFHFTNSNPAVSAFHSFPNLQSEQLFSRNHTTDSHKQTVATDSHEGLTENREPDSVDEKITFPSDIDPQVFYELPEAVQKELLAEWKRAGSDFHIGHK

biological target: DNA polymerase iota (Homo sapiens) (UniProt Q9UNA4); test: qHTS for Inhibitors of Polymerase Iota; details: Pol iota fluorescent replication assay, 10 min; series mostly up to 115 µM; activity, negative = inhibition: at the top concentration
Procedure, shortened: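 Pol iota at 10 nM preincubated 15 min with compounds at room temperature; reaction started with fluorescent substrate, 50 nM final. Fluorescence read kinetically at 0 and 10 min; buffer-only wells as negative control.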
Potency is read from the fitted curve at half-maximal effect.

SMILES	Potency	activity, negative = inhibition
CCOC(=O)COc1ccc(S(=O)(=O)Nc2ccc3c(c2)OCO3)cc1	inconclusive: 89.1 µM [inhibitor, single point]	
CCC(=O)Nc1ccc(NC(=S)NC(=O)/C=C/c2ccco2)cc1	inconclusive: 15.8 µM [inhibitor, partial curve, poor fit]	
COc1ccc(CNC(=O)c2cccn2-c2nnc(N3CCCC3)s2)c(OC)c1		inactive: 14.1%
COc1ccc(NC(=O)CN(c2ccc(OC)c(Cl)c2)S(=O)(=O)c2ccccc2)cc1		inactive: -17%
CCCCN(CCCNC(=O)c1cc(Nc2ccccc2OC)nc2ccccc12)c1ccccc1	inconclusive: 70.8 µM [inhibitor, partial curve, poor fit]	
CC(=O)C1=C(O)C(=O)N(c2ccc(Br)cn2)C1c1ccccc1[N+](=O)[O-] (centres undefined)		inactive: 22.6%
O=C(Nc1nc(-c2ccccc2)cs1)c1cccnc1		inactive: 18.4%
C/C(=C\c1ccccc1)CN1CCC(C(=O)N2CCC(C)CC2)CC1	inconclusive: 3.16 µM [inhibitor, partial curve, poor fit]	
C=CCn1c(=O)c2ccccc2n2c(=S)[nH]nc12	inconclusive: 2.24 µM [inhibitor, full curve]	
COc1ccccc1-c1nc2s/c(=C\c3cccs3)c(=O)n2n1	inconclusive: 7.94 µM [inhibitor, partial curve, poor fit]	
Cc1ccc(S(=O)(=O)Nc2ccc(O)c3cccnc23)cc1		inactive: 48.6%
COc1cc(Nc2nc(SCC(=O)c3ccc(Cl)c(Cl)c3)nc3ccccc23)cc(OC)c1	inconclusive: 89.1 µM [inhibitor, single point]	
Cc1ccc(N(Cc2cccs2)C(=O)c2ccco2)cc1		inactive: -8.73%
CCOC(=O)[C@@H]1[C@H]2COc3cc(OC)ccc3[C@H]2N2C(=O)N(c3cccc(F)c3)C(=O)[C@]12C		inactive: 13.3%
Cc1ccc(CNC(=O)CCc2nnc3ccc(NCCCN4CCCC4=O)nn23)cc1	inconclusive: 89.1 µM [inhibitor, single point]	
Cc1ccc2nc(-c3ccc(-c4ccccn4)s3)cn2c1	inconclusive: 31.6 µM [inhibitor, single point]	
COc1ccc(-c2cn(CCO)c(-c3ccc(Cl)nc3)n2)cc1	inconclusive: 11.2 µM [inhibitor, partial curve, poor fit]	
CC1CN(S(=O)(=O)c2ccc(F)cc2)C(C)N1C(=O)N1CCOCC1 (centres undefined)	inconclusive: 89.1 µM [inhibitor, single point]	
COc1ccccc1N(CC(=O)NC1CCCC1)C(=O)CNC(=O)c1cccs1		inactive: 28.6%
COc1ccccc1C(CCN(Cc1cccs1)C(C)=O)c1ccco1 (centres undefined)	active: 22.4 µM	
Cc1ccccc1NC(=O)COC(=O)c1ccc(S(C)(=O)=O)c([N+](=O)[O-])c1	inconclusive: 22.4 µM [inhibitor, full curve, poor fit] and inconclusive: 44.7 µM [inhibitor, partial curve]	
CCCC(=O)NC1CCCc2c1cnn2-c1ccc(C)c(C)c1 (centres undefined)		inactive: 11%

SMILES	Potency	activity, negative = inhibition
Cc1ccc(Oc2ccc3c(c2)C(=O)N(c2ccc(S(=O)(=O)Nc4nccs4)cc2)C3=O)cc1	inconclusive: 17.8 µM [inhibitor, partial curve, poor fit]	
CC(=O)c1ccccc1Oc1cc(NN2CCCCC2)c([N+](=O)[O-])cc1[N+](=O)[O-]	inconclusive: 79.4 µM [inhibitor, partial curve, poor fit]	
COc1ccc(OC)c(-n2c(=S)[nH]c3cc(C(=O)N4CCC(C(N)=O)CC4)ccc3c2=O)c1	inconclusive: 79.4 µM [inhibitor, single point]	
COc1ccccc1N1CCN(/N=C/c2ccc(O)c(O)c2)CC1	inconclusive: 10 µM [inhibitor, full curve]	
CSc1ccccc1C(=O)Nc1ccccc1C(=O)NC(C)C		inactive: 90%
COc1cc(NC(=O)CN2C(=O)c3ccccc3Sc3ccc(C(=O)N4CCCC4)cc32)cc(OC)c1	inconclusive: 56.2 µM [inhibitor, partial curve, poor fit]	
CCOc1ccc(CCNC(=O)c2nnn(CC(=O)Nc3ccccc3C)c2N)cc1OCC		inactive: 21.9%
Cc1oc2ncnc(N3CCCCC3)c2c1C(=O)NCC1CCN(Cc2cccc(F)c2)CC1		inactive: -5.66%
O=C(O)c1ccc(/C=C/c2nc3sc4c(c3c(=O)[nH]2)CCC4)cc1	active: 14.1 µM	
CC(C)C(CO)NC(=O)CC(=O)NC(CO)C(C)C (centres undefined)		inactive: 0.999%
Cc1ccc(-n2ncc3c(=O)n(CC(=O)NCc4ccco4)cnc32)cc1C	inconclusive: 10 µM [inhibitor, full curve]	
CC(C)NC(=O)C(=O)Nc1cc2c3c(c1)CCC(=O)N3CCC2		inactive: 5.91%
O=C(CCc1ccc(S(=O)(=O)NC2CCCCC2)cc1)N(Cc1ccccc1)Cc1ccccc1	inconclusive: 39.8 µM [inhibitor, single point]	
CC(/C=C/c1ccco1)=N\NC(=O)c1cc(C)[nH]n1	active: 17.8 µM	
COc1cc(NC(=O)C2CCCN(S(=O)(=O)c3ccc4c(c3)CCCN4C(C)=O)C2)cc(OC)c1 (centres undefined)		inactive: -1.66%
CCN1C(=O)/C(=C2\SC(=S)N(NC(=O)c3ccccc3O)C2=O)c2ccccc21	inconclusive: 11.2 µM [inhibitor, partial curve, poor fit]	
Cc1ccc(NC(=O)c2cccc3c2C(=O)N(C2CCCCC2)C3)c(Cl)c1		inactive: 7.6%
COc1cccc(Cn2c(=O)cc(C)c3c(C)nn(C)c32)c1		inactive: 2.1%
CCCc1nn2c(=O)cc(COC(=O)c3cccc(NC(=O)c4cccs4)c3)nc2s1	inconclusive: 89.1 µM [inhibitor, single point]	
O=C(Cc1cccs1)N(CC1CCCO1)C1(C(=O)NC2CCCCC2)CCCCC1 (centres undefined)	inconclusive: 89.1 µM [inhibitor, single point]	
C/C=C/c1ccc(OCc2cc(=O)n3cc(C)ccc3n2)c(OC)c1	inconclusive: 79.4 µM [inhibitor, single point]	
CCC(CO)Oc1cc(NCc2ccccc2C(F)(F)F)c2ncn(C(C)C)c2c1 (centres undefined)	inconclusive: 20 µM [inhibitor, partial curve, poor fit]	

Some values from the entries so far:
Under activity, negative = inhibition, CCOc1ccc(CCNC(=O)c2nnn(CC(=O)Nc3ccccc3C)c2N)cc1OCC reads inactive: 21.9%
Under activity, negative = inhibition, CC(=O)C1=C(O)C(=O)N(c2ccc(Br)cn2)C1c1ccccc1[N+](=O)[O-] (centres undefined) reads inactive: 22.6%
